{"sequences": {"note": "Protein sequences, listed by entry. Tags and fused reporters are not part of them. Residues count along the entry.", "UniProt P21860, residues 20-1342": "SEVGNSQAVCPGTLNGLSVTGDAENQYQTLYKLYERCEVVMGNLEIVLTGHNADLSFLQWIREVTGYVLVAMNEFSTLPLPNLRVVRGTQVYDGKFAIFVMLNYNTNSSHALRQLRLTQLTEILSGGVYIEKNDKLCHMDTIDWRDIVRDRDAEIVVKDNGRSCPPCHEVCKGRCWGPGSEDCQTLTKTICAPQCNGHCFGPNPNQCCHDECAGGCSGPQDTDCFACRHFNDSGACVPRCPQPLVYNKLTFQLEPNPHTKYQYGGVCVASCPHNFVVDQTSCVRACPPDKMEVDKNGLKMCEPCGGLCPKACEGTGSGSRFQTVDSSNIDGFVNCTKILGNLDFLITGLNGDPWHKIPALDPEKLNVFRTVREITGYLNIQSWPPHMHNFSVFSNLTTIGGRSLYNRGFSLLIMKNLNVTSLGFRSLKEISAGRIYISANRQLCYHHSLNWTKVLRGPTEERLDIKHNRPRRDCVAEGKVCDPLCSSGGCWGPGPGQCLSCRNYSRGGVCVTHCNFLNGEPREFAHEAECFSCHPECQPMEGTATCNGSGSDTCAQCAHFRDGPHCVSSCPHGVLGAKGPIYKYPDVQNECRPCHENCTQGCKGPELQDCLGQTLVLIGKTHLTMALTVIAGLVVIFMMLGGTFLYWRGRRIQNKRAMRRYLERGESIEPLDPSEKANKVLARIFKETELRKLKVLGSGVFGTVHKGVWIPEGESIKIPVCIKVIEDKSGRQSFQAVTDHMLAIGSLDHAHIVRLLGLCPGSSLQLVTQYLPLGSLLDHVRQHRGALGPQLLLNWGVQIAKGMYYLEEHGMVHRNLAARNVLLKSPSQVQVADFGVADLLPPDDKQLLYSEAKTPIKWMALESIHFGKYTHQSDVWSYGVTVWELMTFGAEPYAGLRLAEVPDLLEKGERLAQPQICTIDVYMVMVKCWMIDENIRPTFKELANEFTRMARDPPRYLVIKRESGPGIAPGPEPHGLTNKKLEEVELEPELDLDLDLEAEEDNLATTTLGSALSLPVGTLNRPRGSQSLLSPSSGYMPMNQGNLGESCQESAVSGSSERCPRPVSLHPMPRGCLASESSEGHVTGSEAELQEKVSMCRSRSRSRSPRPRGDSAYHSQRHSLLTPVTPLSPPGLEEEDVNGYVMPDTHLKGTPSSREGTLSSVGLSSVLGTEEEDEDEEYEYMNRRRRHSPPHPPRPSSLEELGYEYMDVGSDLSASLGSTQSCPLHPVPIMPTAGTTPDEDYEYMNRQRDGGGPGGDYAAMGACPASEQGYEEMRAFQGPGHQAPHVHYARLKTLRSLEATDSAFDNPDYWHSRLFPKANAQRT", "UniProt P46934": "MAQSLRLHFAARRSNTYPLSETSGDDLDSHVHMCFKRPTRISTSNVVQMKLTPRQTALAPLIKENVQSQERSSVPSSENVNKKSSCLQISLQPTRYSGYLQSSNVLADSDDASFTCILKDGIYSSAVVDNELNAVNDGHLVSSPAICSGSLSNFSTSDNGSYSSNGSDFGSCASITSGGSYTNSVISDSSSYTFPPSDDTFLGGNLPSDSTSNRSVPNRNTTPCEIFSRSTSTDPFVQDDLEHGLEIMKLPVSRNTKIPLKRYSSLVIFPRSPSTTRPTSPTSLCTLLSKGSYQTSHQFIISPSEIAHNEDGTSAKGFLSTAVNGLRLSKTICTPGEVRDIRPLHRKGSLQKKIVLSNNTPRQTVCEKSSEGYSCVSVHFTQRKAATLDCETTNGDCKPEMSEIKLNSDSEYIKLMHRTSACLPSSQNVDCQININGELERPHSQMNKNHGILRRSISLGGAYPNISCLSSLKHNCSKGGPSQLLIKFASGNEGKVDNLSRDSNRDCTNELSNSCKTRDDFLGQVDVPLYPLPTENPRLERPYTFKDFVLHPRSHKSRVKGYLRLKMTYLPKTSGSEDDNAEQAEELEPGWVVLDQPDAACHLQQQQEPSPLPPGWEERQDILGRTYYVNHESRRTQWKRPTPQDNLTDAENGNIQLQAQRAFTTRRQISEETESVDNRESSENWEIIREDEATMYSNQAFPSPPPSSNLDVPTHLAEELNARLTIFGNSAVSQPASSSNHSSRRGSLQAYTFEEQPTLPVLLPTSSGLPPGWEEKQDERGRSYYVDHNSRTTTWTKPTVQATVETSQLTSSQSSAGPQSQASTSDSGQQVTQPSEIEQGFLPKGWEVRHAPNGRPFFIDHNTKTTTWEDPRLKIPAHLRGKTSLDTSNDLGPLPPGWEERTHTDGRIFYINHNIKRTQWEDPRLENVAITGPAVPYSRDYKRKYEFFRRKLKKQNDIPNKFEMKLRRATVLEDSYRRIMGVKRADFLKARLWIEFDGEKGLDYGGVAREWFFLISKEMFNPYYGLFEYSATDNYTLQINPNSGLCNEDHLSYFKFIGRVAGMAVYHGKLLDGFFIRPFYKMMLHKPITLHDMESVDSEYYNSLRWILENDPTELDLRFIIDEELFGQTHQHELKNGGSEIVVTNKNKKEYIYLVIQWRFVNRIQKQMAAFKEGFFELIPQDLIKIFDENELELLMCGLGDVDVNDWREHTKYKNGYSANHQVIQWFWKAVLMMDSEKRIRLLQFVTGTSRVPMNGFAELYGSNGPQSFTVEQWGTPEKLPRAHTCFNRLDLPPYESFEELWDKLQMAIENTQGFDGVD"}, "source": "paper PMC5095055", "key": {"[1]": {"target": "HER3/ErbB3 receptor (human (endogenous in BxPC3)) (UniProt P21860)", "test": "co-IP; serum-starved BxPC3 cells in medium alone (basal, control); 2 mg lysate in CHAPS buffer, HER3 immunoprecipitated with anti-HER3 antibody 2F12 (C-terminal tail), 4°C, protein A/G agarose or magnetic beads; western blot for ITCH, HER3, NEDD4"}, "[2]": {"target": "HER3/ErbB3 receptor (human (endogenous in BxPC3)) (UniProt P21860)", "test": "condition: only after incubation of the cells with 9F7-F11 or with NRG-1β; co-IP; serum-starved BxPC3 cells incubated with 50 μg/mL 9F7-F11 for 30 min or 100 ng/mL NRG-1β for 30 min or 1 hr; 2 mg lysate in CHAPS buffer, HER3 immunoprecipitated with anti-HER3 antibody 2F12 (C-terminal tail), 4°C; western blot for ITCH, HER3, NEDD4"}}, "note": "These are yes or no findings as the source states them, for the method shown. In cells and extracts the contact can be indirect. Some entries that bind do so weakly or less than the wild type.", "data": [{"substance": "neural precursor cell expressed, developmentally downregulated 4 (NEDD4) (from UniProt P46934 1-1319) (enzyme)", "values": [{"measurement": "binding", "setting": "[1]", "value": "binds"}, {"measurement": "binding", "setting": "[2]", "value": "no binding"}]}]}
